Reference: US20250186646A1, “Use of Volatile Compositions to Limit or Eliminate Perception of Fecal Malodour” (Firmenich SA, priority 2016, published 2025)
Some of these results come from one statement about several compounds together.

Test system: fecal reconstitution
Assay: Olfactometer sensory measurement of residual fecal odour (Examples 2 and 3)
Type: in vivo
Settings: gas phase concentration of 3.4 μg/l air, combined with fecal reconstitution

| Compound | residual fecal odour (fecal score left) |
| --- | --- |
| Cc1ccc2c(c1)CC(C)(CO)C2 (racemic) [LILYFLORE, (+−)-2,5-DIMETHYL-2-INDANMETHANOL] | < 50% |
| (+−)-(3E)-4-(2,6,6-trimethyl-2-cyclohexen-1-yl)-3-buten-2-one (A) + (3E)-4-(2,6,6-trimethyl-1-cyclohexen-1-yl)-3-buten-2-one (B) [Violet AT] | < 50% |
